{"sequences": {"note": "By UniProt entry, the sequences of proteins in these tests, tags left out. Residues count along the entry.", "UniProt P62136, residues 7-300": "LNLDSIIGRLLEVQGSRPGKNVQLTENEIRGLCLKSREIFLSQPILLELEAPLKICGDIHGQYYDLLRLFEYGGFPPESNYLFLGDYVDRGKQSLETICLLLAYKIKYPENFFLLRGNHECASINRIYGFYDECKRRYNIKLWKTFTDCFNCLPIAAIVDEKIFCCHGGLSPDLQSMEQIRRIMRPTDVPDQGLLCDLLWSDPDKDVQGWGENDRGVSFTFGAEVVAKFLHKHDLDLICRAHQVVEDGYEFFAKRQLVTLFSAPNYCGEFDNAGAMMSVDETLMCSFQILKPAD"}, "source": "paper PMC10776994", "about": "“The SDS22:PP1:I3 complex: SDS22 binding to PP1 loosens the active site metal to prime metal exchange” (The Journal of Biological Chemistry, 2023)", "binders": {"B1": {"name": "I3_(27-68) (domain or fragment, human, UniProt O60927 27-68, looked up)", "chain": "SLTIKLRKRKPEKKVEWTSDTVDNEHMGRRSSKCCCIYEKPR", "notes": "source: E. coli BL21 (DE3), purified (Ni-NTA, TEV, heat 95 °C, SEC); not shown: His6, N-terminal, cleaved; MBP, N-terminal, cleaved"}}, "biological_target": "PP1α_(7-300) (UniProt P62136)", "experiment": "crystal structure; SDS22_(56-360):PP1α_(7-300):I3_(27-68) (SPI) co-expressed in Expi293F; 3.2 Å, molecular replacement with PDB 6OBN; both purified", "note": "Results are given in words; binding and its absence hold for the method and conditions named. Some entries that bind do so weakly or less than the wild type.", "data": [{"binder": "B1", "values": [{"measurement": "binding", "value": "binds"}]}]}
